Source: the supplement of paper PMC12819154, “High-throughput peptide-centric local stability assay extends protein–ligand identification to membrane proteins, tissues and bacteria” (Nature Structural & Molecular Biology, 2025)
The other results are listed elsewhere or left out. Most entries show no effect beyond the scatter of the controls.

Protein sequences, listed by entry. Tags and fused reporters are not part of them. Lines headed by an entry give the natural chain unless they say otherwise; changes in a name come on top.
UniProt O43151: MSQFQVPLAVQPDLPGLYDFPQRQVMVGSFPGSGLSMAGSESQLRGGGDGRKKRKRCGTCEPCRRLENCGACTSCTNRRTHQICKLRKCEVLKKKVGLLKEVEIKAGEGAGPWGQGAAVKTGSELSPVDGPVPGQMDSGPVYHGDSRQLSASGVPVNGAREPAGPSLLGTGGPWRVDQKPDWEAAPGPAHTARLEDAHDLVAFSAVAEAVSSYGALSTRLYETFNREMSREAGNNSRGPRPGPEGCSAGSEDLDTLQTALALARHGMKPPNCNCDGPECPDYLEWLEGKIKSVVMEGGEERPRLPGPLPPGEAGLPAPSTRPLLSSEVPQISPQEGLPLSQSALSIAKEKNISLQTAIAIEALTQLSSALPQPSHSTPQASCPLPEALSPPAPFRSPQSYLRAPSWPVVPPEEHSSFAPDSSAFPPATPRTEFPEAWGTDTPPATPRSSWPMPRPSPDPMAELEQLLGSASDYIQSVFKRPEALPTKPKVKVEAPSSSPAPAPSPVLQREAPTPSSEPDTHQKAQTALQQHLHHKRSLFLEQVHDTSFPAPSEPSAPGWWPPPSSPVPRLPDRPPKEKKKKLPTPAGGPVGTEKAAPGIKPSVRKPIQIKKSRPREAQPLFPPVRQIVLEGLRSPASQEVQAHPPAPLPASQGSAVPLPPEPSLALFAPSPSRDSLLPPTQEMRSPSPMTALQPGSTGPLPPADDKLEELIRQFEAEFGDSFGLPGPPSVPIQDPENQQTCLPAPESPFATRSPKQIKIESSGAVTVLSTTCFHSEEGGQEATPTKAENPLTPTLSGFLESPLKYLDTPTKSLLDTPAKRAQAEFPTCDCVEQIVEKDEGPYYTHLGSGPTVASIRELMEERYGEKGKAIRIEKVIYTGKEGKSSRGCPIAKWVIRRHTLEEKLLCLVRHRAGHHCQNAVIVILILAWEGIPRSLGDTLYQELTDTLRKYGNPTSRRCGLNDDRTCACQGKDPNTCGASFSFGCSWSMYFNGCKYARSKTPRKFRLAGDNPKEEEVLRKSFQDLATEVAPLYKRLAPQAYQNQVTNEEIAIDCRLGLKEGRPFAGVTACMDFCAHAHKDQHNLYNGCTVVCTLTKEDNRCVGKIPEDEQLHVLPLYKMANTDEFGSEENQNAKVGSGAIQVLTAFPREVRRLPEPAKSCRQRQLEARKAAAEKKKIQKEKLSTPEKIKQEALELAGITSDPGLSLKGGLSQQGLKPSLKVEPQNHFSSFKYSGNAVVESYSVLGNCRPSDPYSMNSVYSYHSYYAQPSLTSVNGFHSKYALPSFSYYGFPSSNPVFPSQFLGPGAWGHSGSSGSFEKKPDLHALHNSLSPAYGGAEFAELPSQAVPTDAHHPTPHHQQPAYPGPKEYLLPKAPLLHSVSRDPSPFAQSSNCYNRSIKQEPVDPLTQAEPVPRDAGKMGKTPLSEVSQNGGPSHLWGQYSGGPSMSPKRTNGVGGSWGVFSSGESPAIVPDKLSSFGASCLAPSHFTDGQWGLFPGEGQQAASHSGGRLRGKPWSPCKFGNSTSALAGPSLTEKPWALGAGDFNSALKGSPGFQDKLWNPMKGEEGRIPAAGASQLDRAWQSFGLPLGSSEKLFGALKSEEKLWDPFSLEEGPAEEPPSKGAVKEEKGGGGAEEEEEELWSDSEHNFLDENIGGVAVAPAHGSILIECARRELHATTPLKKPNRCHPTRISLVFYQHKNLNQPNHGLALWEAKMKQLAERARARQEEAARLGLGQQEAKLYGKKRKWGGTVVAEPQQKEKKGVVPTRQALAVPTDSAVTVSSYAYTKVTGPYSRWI
UniProt O75037: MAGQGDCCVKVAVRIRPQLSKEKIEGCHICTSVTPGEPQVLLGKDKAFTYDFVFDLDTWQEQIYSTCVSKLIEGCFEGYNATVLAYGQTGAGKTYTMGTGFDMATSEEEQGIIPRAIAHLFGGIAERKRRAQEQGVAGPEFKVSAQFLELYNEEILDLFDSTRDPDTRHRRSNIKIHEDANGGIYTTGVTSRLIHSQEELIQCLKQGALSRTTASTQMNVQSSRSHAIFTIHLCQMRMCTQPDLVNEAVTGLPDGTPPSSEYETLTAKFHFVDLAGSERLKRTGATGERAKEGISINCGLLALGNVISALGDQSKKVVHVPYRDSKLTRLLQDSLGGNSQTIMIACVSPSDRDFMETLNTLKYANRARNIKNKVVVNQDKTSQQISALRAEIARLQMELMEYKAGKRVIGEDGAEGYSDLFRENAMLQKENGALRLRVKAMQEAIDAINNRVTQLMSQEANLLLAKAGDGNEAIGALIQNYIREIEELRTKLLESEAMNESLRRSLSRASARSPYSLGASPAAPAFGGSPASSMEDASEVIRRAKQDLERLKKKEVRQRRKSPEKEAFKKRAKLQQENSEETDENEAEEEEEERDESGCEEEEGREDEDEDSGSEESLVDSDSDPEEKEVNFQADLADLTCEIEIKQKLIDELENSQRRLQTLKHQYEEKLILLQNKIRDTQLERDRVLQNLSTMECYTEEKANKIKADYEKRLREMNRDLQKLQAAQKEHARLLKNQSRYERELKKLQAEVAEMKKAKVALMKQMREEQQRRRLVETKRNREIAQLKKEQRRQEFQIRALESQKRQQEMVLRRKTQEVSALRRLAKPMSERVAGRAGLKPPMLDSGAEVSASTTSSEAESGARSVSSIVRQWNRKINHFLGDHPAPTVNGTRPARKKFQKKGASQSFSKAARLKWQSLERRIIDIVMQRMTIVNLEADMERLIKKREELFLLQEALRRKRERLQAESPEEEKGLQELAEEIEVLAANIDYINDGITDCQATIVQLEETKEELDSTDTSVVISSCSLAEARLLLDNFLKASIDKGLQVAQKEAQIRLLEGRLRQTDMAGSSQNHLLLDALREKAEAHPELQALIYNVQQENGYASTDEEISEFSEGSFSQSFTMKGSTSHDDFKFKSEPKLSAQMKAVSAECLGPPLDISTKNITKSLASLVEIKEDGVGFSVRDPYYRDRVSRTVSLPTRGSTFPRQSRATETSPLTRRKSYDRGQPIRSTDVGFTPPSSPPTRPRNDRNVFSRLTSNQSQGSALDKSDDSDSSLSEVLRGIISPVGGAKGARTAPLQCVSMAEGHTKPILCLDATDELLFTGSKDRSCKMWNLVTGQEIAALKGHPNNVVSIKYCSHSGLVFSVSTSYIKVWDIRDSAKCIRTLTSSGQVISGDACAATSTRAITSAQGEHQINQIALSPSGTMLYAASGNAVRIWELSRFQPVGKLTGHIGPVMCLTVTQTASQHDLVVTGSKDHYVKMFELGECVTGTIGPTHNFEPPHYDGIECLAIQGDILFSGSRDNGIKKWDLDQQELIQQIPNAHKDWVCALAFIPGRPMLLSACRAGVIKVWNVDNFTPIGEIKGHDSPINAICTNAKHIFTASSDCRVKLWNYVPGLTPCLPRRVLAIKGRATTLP
UniProt O43298: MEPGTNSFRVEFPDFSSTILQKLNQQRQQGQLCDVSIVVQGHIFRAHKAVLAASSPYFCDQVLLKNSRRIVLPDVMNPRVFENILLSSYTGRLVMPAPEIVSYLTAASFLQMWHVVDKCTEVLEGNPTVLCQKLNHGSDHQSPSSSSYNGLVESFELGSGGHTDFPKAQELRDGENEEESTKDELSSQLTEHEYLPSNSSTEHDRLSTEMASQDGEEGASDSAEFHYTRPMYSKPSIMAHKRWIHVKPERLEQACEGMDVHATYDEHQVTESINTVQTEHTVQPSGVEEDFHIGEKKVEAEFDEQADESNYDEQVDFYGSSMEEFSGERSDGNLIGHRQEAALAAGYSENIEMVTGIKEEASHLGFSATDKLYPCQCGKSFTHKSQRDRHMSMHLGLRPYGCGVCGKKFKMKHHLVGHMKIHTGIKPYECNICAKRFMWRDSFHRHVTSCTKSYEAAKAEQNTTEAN
UniProt O60512: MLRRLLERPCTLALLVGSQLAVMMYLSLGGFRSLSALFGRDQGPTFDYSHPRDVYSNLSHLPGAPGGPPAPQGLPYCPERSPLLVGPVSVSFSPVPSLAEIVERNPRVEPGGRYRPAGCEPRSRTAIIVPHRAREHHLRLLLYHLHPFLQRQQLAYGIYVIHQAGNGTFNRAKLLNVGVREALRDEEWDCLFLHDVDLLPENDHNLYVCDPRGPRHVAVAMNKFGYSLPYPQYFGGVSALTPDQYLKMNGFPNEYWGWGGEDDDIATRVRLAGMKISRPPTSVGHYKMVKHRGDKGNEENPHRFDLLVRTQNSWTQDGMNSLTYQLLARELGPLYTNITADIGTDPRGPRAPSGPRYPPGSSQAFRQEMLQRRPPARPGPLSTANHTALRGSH
UniProt O43167: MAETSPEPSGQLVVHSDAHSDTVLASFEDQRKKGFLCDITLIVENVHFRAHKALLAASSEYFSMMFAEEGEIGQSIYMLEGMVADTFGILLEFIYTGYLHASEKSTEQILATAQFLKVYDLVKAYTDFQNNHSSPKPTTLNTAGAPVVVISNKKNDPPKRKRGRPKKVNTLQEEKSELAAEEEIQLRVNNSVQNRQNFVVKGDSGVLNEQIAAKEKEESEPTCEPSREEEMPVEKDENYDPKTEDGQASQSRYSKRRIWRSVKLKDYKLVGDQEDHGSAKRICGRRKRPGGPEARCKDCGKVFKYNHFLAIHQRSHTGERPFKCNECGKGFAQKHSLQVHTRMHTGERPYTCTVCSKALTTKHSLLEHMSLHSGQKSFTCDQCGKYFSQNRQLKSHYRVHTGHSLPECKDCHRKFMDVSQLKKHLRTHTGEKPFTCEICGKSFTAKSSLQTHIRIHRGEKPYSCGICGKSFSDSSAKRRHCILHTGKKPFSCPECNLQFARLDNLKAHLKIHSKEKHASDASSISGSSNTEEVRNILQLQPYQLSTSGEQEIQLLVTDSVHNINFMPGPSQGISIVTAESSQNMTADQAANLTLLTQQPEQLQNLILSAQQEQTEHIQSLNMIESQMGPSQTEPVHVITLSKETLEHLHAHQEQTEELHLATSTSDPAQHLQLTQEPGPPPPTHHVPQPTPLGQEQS
UniProt O60443: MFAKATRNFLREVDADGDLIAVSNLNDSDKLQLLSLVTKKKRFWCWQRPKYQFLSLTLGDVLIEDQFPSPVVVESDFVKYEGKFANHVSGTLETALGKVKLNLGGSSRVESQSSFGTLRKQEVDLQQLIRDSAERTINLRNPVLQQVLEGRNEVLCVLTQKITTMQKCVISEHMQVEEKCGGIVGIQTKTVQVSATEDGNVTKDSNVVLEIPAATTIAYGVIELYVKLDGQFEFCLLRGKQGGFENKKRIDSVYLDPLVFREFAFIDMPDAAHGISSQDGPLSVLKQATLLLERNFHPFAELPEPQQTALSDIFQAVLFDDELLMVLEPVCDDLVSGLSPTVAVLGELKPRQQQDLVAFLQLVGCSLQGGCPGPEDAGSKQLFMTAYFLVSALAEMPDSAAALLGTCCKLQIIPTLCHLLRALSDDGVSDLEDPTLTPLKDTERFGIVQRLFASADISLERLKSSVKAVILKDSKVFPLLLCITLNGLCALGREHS
UniProt O43683: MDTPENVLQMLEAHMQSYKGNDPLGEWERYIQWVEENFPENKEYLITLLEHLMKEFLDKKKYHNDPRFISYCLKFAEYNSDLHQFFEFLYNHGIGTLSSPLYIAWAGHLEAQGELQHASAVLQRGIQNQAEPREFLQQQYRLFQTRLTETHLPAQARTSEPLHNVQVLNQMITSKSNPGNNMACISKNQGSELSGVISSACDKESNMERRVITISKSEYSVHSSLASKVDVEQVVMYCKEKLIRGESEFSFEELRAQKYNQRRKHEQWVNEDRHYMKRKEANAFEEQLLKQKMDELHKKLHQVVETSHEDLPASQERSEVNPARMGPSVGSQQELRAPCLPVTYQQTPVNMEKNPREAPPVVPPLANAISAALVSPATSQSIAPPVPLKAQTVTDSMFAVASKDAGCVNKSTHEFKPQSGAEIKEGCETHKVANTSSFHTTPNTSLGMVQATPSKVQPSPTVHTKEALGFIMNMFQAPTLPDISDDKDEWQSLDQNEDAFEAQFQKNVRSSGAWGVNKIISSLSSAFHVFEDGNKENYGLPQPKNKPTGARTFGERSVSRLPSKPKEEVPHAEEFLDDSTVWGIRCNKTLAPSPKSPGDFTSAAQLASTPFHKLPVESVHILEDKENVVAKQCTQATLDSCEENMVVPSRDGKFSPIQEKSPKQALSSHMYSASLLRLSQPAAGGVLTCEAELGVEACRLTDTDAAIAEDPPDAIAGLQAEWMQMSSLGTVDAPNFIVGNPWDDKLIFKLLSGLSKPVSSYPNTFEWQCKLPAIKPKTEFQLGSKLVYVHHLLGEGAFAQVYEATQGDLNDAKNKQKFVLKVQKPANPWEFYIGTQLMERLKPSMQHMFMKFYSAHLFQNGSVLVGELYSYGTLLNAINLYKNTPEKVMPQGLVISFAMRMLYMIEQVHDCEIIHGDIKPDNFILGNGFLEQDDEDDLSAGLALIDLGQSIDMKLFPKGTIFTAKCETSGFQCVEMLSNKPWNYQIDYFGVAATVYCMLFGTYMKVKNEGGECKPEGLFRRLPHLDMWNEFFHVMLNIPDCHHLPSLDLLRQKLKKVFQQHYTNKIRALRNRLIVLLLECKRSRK

Compound: CN[C@@H]1C[C@H]2O[C@@](C)([C@@H]1OC)n1c3ccccc3c3c4c(c5c6ccccc6n2c5c31)C(=O)NC4 [staurosporine]
Assay: log2 fold change of tryptic peptide abundance, ligand vs vehicle (limited proteolysis) (log2 ratio); higher = more trypsin-susceptible (destabilized)
Conditions: ligand concentration: 20 uM; sample: K562 cleared lysate; digestion: 4 min, 22 C (HT-PELSA RT4min, Orbitrap Astral)

Target | log2 fold change
AKR7A2 (peptide sequence: MDAPASAAAVR, peptide start residue: 51) (UniProt O43488) | -0.152
UniProt O43847 (peptide sequence: LGADESEEEGR, peptide start residue: 81) | -0.131
N4BP1 (peptide sequence: AELLEQSR, peptide start residue: 17) (UniProt O75113) | -0.285
URB1 (peptide sequence: MMQTILHFPQNR, peptide start residue: 1602) (UniProt O60287) | 0.524
PHLPP1 (peptide sequence: MEPAAAATVQR, peptide start residue: 1) (UniProt O60346) | 0.416
EVI5 (peptide sequence: EMEEQVEIKR, peptide start residue: 422) (UniProt O60447) | -0.512
UniProt O43310 (peptide sequence: HPPGDKGEAGAHR, peptide start residue: 257) | 0.386
UniProt O75161 (peptide sequence: FSGGSLLTTGSSR, peptide start residue: 858) | -0.411
PSMD3 (peptide sequence: LQLDSPEDAEFIVAK, peptide start residue: 426) (UniProt O43242) | -0.374
UniProt O43151 (peptide sequence: WGGTVVAEPQQK, peptide start residue: 1746) | 0.352
ABCC5 (peptide sequence: ISDIGLADLR, peptide start residue: 1258) (UniProt O15440) | -0.0872
FAM20B (peptide sequence: SFGNPSLDER, peptide start residue: 313) (UniProt O75063) | 0.0672
KIF21B (peptide sequence: VVVNQDKTSQQISALR, peptide start residue: 374) (UniProt O75037) | 0.964
H2AFY (peptide sequence: AGVIFPVGR, peptide start residue: 19) (UniProt O75367) | 0.274
SRGAP2 (peptide sequence: MKEYLEGR, peptide start residue: 454) (UniProt O75044) | 0.194
AP1G1 (peptide sequence: STIVDCLKDLDVSIK, peptide start residue: 348) (UniProt O43747) | -0.378
ZBTB43 (peptide sequence: WIHVKPER, peptide start residue: 243) (UniProt O43298) | 0.295
B4GALT3 (peptide sequence: LLLYHLHPFLQR, peptide start residue: 140) (UniProt O60512) | 0.307
XRCC2 (peptide sequence: ASSSSEEPSHASR, peptide start residue: 202) (UniProt O43543) | -0.242
ZBTB24 (peptide sequence: YNHFLAIHQR, peptide start residue: 305) (UniProt O43167) | -0.386
MAGEB2 (peptide sequence: SPSEDPLTRK, peptide start residue: 105) (UniProt O15479) | 0.197
UniProt O60502 (peptide sequence: YTKPNGDKELSEAEK, peptide start residue: 805) | 0.194
UniProt O60443 (peptide sequence: LQIIPTLCHLLR, peptide start residue: 410) | -0.0875
ZC3H11A (peptide sequence: VNVKPSVVK, peptide start residue: 651) (UniProt O75152) | 0.218
BUB1 (peptide sequence: NQGSELSGVISSACDKESNMERR, peptide start residue: 188) (UniProt O43683) | -0.233
LCMT2 (peptide sequence: AAVWEVDFPDVARR, peptide start residue: 108) (UniProt O60294) | -0.649
AKAP10 (peptide sequence: TLRPDPGPAMSFFR, peptide start residue: 14) (UniProt O43572) | 0.367
UniProt O60861 (peptide sequence: TEEDIKK, peptide start residue: 365) | 0.127
RNF113A (peptide sequence: AVDQVCTFLFKKPGR, peptide start residue: 10) (UniProt O15541) | -0.365

Shown tab-delimited: part of the list above.
Target	log2 fold change
EVI5 (peptide sequence: EMEEQVEIKR, peptide start residue: 422) (UniProt O60447)	-0.512
UniProt O43310 (peptide sequence: HPPGDKGEAGAHR, peptide start residue: 257)	0.386
UniProt O75161 (peptide sequence: FSGGSLLTTGSSR, peptide start residue: 858)	-0.411
PSMD3 (peptide sequence: LQLDSPEDAEFIVAK, peptide start residue: 426) (UniProt O43242)	-0.374
UniProt O43151 (peptide sequence: WGGTVVAEPQQK, peptide start residue: 1746)	0.352
